According to article PMC12327645:
No constants are given. Whether binding was seen depends on the method and setting. Binding seen in cells or lysates may run through a third protein. Some entries that bind do so weakly or less than the wild type. For some of these results: Tags and fused reporters may be left off the sequences shown.

The chains behind the UniProt entries cited, without tags or fusion partners.
UniProt Q9R210: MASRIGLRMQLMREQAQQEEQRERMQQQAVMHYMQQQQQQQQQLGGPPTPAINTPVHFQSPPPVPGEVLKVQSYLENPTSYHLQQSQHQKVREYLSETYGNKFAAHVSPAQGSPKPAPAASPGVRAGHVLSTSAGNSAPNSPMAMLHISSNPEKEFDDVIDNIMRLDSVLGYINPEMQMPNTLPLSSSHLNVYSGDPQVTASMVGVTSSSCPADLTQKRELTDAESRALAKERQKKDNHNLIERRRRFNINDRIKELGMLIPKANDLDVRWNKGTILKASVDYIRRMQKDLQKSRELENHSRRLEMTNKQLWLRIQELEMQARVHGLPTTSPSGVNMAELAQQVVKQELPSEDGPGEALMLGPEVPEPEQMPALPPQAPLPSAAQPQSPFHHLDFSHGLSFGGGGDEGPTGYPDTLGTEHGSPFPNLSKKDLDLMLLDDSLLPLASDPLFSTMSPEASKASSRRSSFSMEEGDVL

T1: FLAG-LHX2 (mouse) (UniProt Q9Z0S2)
T1 sequence: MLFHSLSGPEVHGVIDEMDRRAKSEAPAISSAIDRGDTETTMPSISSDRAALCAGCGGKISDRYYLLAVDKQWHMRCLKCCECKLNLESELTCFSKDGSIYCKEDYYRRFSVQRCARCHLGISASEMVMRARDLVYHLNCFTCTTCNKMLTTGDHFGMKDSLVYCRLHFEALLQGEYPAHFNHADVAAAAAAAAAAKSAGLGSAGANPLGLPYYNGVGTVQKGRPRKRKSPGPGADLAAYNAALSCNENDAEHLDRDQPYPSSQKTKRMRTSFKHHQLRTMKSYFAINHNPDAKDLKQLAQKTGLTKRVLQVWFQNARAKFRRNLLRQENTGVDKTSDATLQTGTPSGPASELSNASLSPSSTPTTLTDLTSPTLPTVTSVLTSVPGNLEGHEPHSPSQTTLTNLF

T2: FLAG-GMNN (mouse) (UniProt O88513)
T2 sequence: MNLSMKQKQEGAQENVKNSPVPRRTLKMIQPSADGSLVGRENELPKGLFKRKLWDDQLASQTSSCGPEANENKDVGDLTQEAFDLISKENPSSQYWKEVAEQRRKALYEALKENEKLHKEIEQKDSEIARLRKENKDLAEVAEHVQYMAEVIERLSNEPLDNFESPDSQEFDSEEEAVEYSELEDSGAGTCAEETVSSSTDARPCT

T3: FLAG-GMNC (mouse) (UniProt Q3URY2)
T3 sequence: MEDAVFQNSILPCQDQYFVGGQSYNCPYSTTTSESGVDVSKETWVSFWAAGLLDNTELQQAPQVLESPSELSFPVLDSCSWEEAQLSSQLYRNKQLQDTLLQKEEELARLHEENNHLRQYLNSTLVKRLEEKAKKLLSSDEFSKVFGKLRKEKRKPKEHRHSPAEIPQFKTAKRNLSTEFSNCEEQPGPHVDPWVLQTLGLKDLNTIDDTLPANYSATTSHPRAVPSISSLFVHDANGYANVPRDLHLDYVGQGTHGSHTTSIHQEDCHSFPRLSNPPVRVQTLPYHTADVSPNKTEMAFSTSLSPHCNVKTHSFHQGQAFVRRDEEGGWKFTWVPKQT

B1: LHX2, endogenous in mouse EPCs (protein, UniProt Q9Z0S2 1-406)
chain: T1 sequence

Columns and labels:
FLAG-LHX2 (mouse) = target: T1, FLAG-LHX2 (mouse); assay: co-IP; FLAG IP from lysate of HEK293T cells co-expressing a FLAG-tagged protein with GFP or GFP-TFEB for 36 h; Pan Mouse IgG Dynabeads pre-bound with FLAG antibody, overnight at 4 °C; washes with RIPA, low salt, high salt, LiCl buffers and 10 mM Tris-HCl pH 8.0; immunoblot
FLAG-GMNN (mouse) = target: T2, FLAG-GMNN (mouse); assay: as above
FLAG-GMNC (mouse) = target: T3, FLAG-GMNC (mouse); assay: as above
[1] = target: TFEB (transcription factor EB), endogenous in mouse EPCs (mouse (endogenous in cultured EPCs)) (UniProt Q9R210); assay: co-IP; endogenous TFEB IP from lysate of SS d + 5 mouse EPCs; Protein A Dynabeads pre-bound with TFEB antibody, overnight at 4 °C; washes with RIPA, low salt, high salt, LiCl buffers and 10 mM Tris-HCl pH 8.0; IgG as control; immunoblot

Molecule	binding (FLAG-LHX2 (mouse))	binding (FLAG-GMNN (mouse))	binding (FLAG-GMNC (mouse))	binding [1]
GFP-TFEB (from UniProt Q9R210 1-475)	binds	no binding	no binding	–
B1	–	–	–	binds
